# Reference: article PMC10814579
# By UniProt entry, the sequences of proteins in these tests, tags left out. Where a name states a change or a piece, a line headed by the entry shows the natural chain unless it says otherwise.
# UniProt Q8C9B9: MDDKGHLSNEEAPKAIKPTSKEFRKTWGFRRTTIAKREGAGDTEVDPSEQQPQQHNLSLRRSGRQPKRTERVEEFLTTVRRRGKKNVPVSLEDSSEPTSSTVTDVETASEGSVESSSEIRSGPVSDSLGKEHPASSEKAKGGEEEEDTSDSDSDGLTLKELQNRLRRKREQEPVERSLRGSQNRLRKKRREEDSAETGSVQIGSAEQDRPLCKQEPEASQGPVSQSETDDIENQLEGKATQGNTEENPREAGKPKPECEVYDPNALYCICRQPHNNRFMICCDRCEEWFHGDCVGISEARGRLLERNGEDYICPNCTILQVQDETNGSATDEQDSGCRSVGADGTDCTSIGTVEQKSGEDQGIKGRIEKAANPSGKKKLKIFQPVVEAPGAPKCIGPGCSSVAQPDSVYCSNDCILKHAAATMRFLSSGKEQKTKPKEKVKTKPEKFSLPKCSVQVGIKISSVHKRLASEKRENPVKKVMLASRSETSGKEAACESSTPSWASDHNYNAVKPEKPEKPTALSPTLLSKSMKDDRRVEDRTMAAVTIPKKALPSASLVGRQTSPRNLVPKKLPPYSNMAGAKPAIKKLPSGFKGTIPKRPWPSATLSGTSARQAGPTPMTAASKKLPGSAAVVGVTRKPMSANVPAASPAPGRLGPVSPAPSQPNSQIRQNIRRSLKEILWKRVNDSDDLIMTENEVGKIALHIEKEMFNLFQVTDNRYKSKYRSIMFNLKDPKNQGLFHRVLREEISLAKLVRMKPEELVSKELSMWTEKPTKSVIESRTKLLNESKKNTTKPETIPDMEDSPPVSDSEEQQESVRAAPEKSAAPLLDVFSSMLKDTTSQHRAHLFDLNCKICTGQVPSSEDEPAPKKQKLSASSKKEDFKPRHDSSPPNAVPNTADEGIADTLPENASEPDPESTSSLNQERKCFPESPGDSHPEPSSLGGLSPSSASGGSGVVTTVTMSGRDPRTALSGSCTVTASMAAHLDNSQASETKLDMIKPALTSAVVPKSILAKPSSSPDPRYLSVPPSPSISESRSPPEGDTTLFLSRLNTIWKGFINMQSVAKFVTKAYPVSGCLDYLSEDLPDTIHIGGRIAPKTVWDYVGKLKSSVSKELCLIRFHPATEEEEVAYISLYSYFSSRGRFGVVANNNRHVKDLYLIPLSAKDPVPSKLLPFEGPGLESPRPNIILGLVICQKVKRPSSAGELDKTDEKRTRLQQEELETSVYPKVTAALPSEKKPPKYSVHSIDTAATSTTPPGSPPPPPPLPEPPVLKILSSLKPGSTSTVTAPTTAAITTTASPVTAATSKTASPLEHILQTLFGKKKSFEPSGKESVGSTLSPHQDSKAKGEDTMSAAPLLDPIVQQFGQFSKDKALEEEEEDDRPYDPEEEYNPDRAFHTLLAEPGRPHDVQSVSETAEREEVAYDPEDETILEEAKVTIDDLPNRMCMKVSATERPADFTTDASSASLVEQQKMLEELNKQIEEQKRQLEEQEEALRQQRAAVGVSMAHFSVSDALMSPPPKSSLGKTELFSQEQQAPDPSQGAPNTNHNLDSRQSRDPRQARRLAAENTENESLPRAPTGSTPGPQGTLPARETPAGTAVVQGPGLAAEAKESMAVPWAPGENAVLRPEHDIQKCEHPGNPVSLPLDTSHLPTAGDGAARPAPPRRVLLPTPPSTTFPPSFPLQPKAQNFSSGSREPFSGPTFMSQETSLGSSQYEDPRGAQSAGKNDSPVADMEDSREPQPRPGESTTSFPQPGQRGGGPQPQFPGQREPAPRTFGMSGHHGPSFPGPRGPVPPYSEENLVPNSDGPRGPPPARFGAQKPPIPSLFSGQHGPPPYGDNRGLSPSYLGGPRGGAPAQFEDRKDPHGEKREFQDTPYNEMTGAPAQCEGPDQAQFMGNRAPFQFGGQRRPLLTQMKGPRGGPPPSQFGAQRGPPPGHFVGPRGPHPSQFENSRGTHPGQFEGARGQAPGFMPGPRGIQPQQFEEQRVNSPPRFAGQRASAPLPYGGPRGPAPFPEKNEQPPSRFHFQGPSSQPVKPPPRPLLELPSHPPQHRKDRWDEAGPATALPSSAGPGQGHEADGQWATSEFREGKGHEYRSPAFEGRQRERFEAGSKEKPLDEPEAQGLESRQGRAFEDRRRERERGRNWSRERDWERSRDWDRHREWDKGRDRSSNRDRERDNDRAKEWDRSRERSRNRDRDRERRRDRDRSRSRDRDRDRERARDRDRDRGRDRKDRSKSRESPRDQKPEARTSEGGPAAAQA
# UniProt P11103: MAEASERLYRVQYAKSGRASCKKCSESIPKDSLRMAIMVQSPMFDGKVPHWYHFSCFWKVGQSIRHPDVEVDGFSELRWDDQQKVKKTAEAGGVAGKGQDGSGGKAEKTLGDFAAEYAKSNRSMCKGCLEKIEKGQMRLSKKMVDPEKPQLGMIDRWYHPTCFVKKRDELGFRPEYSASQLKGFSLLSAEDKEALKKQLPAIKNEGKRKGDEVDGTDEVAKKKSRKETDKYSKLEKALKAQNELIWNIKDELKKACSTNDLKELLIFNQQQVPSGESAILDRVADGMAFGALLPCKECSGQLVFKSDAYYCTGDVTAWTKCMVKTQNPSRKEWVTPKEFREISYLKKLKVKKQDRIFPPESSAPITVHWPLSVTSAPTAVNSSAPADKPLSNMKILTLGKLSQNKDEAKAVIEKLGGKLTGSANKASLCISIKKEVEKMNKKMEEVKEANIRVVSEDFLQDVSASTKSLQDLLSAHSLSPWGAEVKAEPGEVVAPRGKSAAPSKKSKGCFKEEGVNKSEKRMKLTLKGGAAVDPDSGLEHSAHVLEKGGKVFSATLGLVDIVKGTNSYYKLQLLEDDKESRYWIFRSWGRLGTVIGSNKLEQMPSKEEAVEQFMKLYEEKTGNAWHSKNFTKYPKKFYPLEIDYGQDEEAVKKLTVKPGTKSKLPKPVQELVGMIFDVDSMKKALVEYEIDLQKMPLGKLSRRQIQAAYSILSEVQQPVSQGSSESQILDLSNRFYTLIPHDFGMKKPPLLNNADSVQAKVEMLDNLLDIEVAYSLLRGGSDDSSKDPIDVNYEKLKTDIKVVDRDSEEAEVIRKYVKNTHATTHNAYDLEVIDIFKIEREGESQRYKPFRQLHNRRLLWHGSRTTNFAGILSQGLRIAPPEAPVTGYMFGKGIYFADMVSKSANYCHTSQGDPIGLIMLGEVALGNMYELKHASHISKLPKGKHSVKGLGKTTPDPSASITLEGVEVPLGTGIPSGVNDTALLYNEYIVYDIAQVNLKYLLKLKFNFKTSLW
# Biological target: modified HA-DIDO-NT construct with an inactivating mutation in the PHD domain (mouse) (UniProt Q8C9B9)
# Assay: co-IP; lysates of transiently transfected NIH-3T3 cells (untreated, Olaparib- or Camptothecin-treated; RNase A added to lysates in one experiment) immunoprecipitated with anti-HA antibody (anti-DIDO3 CT-specific antibody for ∆NT and SPCT), Protein A/G magnetic beads, Western blot for endogenous PARP1 and DHX9
substance,measurement,value
PARP1 (from UniProt P11103 1-1013),binding,binds

# Results are given in words; binding and its absence hold for the method and conditions named. Binding seen in cells or lysates may run through a third protein. Binding calls can cover weak binding; strength is not graded here.
